Values quoted from earlier work, collected in patent US20250345461A1, “METHOD FOR REPAIRING HAIR CYCLE-RELATED GENES AND METHOD FOR TREATING HAIR CYCLE-RELATED DISEASES USING MIR-520D-5P” (LIVIUS PTE. LTD., priority 2021, published 2025).

Details: Irritable bowel syndrome/pre-anesthesia treatment/bronchiolitis obstruction

In the case of `C[N+]1(C)CCC(OC(=O)C(O)(c2ccccc2)C2CCCC2)C1` (stereo not shown) [Glycopyrrolate], the “Maximum effective blood concentration at the time of administration or concentration in an external preparation in known indications” value is listed as “Administration: 800 pg/mL”.
